Data published in the supplement of paper PMC10849652.
This is one part of the list.

Sequences of proteins named here, by UniProt entry; tags and fusion partners are left off. A change or cut given only in a name is not applied to a line headed by its entry.
UniProt A8MTT3: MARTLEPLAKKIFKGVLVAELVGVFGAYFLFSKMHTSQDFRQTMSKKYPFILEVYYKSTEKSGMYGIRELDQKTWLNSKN
UniProt Q6ZTR5: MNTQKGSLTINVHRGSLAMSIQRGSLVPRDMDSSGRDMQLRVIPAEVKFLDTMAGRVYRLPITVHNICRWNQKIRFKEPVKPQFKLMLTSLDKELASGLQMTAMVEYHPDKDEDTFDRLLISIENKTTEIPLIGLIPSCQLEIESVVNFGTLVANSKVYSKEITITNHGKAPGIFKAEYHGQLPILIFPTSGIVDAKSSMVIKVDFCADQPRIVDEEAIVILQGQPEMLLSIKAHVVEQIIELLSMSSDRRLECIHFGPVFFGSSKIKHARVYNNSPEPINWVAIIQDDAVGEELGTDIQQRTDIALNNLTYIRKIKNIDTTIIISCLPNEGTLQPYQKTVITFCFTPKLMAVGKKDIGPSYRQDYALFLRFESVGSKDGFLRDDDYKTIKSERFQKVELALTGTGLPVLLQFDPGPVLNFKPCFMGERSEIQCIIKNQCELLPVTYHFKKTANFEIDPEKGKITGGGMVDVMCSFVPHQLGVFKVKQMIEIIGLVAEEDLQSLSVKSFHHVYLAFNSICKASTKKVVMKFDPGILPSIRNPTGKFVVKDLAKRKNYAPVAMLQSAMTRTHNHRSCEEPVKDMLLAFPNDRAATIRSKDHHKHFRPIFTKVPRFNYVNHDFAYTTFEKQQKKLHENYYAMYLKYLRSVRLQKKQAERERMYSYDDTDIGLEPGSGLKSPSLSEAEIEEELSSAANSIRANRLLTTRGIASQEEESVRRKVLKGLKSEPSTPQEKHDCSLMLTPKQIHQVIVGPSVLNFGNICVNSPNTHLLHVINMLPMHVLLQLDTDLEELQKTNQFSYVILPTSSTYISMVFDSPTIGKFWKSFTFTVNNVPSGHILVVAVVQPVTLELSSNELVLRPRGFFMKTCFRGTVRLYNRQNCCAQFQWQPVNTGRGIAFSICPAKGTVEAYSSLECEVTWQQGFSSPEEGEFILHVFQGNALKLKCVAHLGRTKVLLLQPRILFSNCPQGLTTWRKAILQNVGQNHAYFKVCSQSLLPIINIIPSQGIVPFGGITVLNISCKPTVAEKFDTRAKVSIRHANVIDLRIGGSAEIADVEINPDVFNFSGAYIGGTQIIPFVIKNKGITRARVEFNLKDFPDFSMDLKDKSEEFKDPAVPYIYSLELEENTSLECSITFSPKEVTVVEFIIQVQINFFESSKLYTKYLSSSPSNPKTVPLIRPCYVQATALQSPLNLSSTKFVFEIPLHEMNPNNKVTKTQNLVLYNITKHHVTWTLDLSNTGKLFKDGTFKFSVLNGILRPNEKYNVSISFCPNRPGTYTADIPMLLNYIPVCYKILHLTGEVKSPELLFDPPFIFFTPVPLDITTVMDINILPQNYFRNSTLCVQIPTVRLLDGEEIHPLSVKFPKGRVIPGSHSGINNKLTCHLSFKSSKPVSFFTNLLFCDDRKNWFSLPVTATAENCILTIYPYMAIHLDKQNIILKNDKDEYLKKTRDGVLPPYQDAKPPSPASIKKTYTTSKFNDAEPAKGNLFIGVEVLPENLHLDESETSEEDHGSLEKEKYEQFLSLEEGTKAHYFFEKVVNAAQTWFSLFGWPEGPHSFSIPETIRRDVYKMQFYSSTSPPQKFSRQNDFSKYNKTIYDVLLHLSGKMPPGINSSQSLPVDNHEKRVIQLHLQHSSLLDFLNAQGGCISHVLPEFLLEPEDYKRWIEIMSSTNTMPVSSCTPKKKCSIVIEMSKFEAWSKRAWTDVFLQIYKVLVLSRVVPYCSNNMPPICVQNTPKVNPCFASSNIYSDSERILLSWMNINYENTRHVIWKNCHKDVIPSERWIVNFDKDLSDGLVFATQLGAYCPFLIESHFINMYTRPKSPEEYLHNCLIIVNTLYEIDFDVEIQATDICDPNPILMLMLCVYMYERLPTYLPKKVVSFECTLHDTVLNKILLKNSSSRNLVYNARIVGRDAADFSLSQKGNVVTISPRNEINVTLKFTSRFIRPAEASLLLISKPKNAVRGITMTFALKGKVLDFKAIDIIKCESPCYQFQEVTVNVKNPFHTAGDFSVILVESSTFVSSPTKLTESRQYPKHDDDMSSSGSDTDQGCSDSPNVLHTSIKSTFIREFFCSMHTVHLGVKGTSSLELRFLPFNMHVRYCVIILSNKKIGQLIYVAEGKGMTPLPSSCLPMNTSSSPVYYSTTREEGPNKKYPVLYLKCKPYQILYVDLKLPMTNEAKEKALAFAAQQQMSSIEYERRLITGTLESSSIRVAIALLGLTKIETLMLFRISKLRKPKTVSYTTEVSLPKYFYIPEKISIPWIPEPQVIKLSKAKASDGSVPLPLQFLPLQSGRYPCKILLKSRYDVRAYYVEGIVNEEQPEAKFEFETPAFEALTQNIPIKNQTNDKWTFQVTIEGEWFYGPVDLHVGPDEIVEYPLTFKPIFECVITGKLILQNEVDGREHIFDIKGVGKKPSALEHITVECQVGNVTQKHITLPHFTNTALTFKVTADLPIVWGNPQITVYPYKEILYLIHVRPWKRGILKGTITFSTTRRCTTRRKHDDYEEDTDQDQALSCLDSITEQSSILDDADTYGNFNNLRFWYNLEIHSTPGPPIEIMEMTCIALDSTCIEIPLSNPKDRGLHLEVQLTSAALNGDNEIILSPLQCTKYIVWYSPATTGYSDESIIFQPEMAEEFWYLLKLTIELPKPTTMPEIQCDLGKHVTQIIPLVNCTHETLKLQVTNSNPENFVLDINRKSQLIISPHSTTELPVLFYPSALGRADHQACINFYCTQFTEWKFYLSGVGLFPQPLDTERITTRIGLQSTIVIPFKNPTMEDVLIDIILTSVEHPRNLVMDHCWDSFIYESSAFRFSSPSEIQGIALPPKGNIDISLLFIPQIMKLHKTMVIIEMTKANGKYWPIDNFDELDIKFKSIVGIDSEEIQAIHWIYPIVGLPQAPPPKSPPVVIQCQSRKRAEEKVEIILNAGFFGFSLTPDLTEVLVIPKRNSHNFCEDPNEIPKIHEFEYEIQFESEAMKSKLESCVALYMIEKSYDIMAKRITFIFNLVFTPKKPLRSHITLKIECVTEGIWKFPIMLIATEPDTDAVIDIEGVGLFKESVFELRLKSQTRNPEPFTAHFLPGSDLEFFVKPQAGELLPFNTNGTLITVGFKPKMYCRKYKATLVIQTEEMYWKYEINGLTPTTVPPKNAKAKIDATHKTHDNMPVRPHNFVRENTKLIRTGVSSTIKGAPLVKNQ
UniProt P55290: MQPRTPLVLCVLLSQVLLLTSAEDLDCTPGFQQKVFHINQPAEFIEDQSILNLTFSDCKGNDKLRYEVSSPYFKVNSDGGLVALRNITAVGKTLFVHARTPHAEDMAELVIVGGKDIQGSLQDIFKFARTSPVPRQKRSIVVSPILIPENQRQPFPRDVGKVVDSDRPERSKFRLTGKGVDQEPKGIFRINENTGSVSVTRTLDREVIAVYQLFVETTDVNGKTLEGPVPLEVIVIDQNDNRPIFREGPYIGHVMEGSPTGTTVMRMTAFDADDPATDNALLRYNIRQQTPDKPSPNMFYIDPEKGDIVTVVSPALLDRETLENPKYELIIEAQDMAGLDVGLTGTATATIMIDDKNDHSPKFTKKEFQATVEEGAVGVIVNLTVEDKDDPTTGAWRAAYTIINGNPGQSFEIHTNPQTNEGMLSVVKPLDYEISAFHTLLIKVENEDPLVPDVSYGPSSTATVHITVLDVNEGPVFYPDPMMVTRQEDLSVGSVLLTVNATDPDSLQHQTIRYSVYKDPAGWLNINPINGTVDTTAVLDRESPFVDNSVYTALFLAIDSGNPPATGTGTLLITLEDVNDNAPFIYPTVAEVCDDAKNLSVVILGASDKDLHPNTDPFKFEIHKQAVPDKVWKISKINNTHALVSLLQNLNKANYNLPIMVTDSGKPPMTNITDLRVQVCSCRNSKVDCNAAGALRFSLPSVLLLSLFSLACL
UniProt Q96HQ2: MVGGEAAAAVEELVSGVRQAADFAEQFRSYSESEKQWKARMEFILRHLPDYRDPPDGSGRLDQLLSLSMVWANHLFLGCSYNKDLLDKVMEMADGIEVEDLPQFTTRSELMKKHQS
UniProt Q99741: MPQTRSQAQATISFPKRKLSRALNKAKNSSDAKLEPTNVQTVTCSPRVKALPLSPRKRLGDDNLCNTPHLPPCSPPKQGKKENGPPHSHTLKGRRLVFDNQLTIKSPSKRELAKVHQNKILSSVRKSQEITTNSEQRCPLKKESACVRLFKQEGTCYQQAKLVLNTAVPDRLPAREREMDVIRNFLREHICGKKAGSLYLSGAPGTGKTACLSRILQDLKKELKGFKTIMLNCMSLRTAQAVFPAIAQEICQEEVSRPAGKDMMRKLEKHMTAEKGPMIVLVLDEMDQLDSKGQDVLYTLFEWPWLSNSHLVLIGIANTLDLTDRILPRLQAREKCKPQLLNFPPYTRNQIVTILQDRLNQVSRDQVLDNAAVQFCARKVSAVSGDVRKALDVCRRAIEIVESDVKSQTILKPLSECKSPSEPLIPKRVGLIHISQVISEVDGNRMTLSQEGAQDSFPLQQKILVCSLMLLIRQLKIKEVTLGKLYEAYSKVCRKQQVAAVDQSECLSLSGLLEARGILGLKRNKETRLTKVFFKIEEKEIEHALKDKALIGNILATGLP
UniProt Q9Y592: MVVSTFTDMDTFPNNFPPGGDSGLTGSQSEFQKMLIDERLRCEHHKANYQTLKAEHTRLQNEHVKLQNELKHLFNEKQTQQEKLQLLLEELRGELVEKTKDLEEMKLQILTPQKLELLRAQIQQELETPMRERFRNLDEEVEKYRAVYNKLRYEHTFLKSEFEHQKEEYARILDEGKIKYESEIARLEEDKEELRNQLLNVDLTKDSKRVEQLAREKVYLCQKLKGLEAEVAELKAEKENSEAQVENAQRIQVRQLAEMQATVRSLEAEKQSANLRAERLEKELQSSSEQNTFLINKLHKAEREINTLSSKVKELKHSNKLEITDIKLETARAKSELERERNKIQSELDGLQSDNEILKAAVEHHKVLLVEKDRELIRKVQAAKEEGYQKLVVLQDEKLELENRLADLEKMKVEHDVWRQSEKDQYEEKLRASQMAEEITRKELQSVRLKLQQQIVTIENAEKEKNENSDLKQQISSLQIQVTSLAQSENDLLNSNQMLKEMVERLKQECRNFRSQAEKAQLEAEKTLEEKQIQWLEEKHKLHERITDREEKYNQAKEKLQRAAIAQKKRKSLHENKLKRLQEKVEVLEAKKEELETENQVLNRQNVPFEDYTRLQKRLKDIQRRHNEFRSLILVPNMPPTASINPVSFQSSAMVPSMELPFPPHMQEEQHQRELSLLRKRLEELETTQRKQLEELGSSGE
UniProt Q5T655: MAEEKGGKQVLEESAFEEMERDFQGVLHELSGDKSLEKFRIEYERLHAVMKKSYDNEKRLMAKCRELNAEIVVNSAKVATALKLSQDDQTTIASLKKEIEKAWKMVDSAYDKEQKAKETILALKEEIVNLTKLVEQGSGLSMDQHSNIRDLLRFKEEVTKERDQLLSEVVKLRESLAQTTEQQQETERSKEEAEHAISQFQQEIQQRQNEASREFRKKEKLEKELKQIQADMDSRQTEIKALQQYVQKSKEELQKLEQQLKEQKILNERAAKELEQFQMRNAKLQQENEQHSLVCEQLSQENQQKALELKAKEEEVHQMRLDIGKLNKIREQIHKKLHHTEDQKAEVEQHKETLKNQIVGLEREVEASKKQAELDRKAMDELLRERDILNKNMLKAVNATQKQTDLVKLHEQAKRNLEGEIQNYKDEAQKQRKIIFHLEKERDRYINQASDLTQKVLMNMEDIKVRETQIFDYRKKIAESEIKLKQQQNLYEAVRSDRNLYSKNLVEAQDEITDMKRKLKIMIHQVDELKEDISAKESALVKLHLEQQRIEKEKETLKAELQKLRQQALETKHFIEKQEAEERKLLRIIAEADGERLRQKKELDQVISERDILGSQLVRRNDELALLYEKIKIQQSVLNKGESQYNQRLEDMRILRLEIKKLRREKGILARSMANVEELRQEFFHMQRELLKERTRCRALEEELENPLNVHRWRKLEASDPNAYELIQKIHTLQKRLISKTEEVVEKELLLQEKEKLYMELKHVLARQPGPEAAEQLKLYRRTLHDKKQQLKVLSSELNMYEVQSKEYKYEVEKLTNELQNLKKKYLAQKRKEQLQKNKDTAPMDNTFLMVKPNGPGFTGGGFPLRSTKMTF
UniProt P17676: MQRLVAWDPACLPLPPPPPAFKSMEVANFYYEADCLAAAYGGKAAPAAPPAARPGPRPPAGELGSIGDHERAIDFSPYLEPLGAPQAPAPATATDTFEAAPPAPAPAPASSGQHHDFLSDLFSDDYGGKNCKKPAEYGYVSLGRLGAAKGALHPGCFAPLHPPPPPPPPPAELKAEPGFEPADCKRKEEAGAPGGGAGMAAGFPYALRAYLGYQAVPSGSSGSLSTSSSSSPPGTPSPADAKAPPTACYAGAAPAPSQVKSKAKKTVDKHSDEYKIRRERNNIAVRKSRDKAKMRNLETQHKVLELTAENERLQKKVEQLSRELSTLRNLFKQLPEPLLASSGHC

Columns and labels:
Assay in all cases: log2 fold change, soluble protein after heating vs DMSO (PISA); higher = thermal stabilisation; K562 cells, 10 uM, 30 min; active = over 0.2 and 3.5 SD of the protein, either way, in both replicates (recomputed)
[1] = compound: CS(=O)(=O)c1ccc(-c2cnc(N)c(C(=O)Nc3ccccc3)n2)cc1
How it was run: (§1)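 Quantification of soluble protein used TMTpro 16plex LC-MS/MS, with channel sums equalised. Samples were the supernatant after 21,000xg for 90 min of pooled aliquots from K562 cells (2×10^6 cells/mL) treated with 10 μM compound for 30 min, heated for 3 min over 48°C-58°C, and extracted in PBS with 0.5% NP-40 at 4°C. Values, from duplicates, describe thermal stability against control samples on a log2 fold-change scale.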

[2] = compound: C[C@H](C1=CC=C(C=C1)C(=O)NC2=C3C=CNC3=NC=C2)N
How it was run: as §1

gandotinib = compound: Cc1cc(Nc2cc(CN3CCOCC3)c3nc(C)c(Cc4ccc(Cl)cc4F)n3n2)n[nH]1 [gandotinib]
How it was run: as §1

[3] = compound: Cc1cccc(CC(=O)N2CCc3c2ccc(-c2cn(C)c4ncnc(N)c24)c3F)n1
How it was run: as §1

nilotinib = compound: Cc1cn(-c2cc(NC(=O)c3ccc(C)c(Nc4nccc(-c5cccnc5)n4)c3)cc(C(F)(F)F)c2)cn1 [nilotinib]
How it was run: as §1

[4] = compound: Cc1nc(Nc2n[nH]c3c2CN(C(=O)N[C@H](CN(C)C)c2ccccc2)C3(C)C)c2sccc2n1
How it was run: as §1

[5] = compound: Cc1ncc(-c2ccnc(Nc3ccc(S(C)(=O)=O)cc3)n2)n1C(C)C
How it was run: as §1

[6] = compound: Cn1cc(-c2ccc3c(c2)CCN3C(=O)Cc2cccc(C(F)(F)F)c2)c2c(N)ncnc21
How it was run: as §1

mubritinib = compound: FC(F)(F)c1ccc(/C=C/c2nc(COc3ccc(CCCCn4ccnn4)cc3)co2)cc1 [mubritinib]
How it was run: as §1

[7] = compound: C[C@@H]1COCCN1C2=NC(=NC(=C2)C3(CC3)S(=O)(=O)C)C4=C5C=CNC5=CC=C4
How it was run: as §1

crizotinib = compound: C[C@@H](Oc1cc(-c2cnn(C3CCNCC3)c2)cnc1N)c1c(Cl)ccc(F)c1Cl [crizotinib]
How it was run: as §1

tozasertib = compound: Cc1cc(Nc2cc(N3CCN(C)CC3)nc(Sc3ccc(NC(=O)C4CC4)cc3)n2)n[nH]1 [tozasertib]
How it was run: as §1

doramapimod = compound: Cc1ccc(-n2nc(C(C)(C)C)cc2NC(=O)Nc2ccc(OCCN3CCOCC3)c3ccccc23)cc1 [doramapimod]
How it was run: as §1

tipifarnib = compound: Cn1cncc1[C@@](N)(c1ccc(Cl)cc1)c1ccc2c(c1)c(-c1cccc(Cl)c1)cc(=O)n2C [tipifarnib]
How it was run: as §1

[8] = compound: Cc1cc(SCc2sc(-c3ccc(C(F)(F)F)cc3)nc2C)ccc1OCC(=O)O
How it was run: as §1

ispinesib = compound: Cc1ccc(C(=O)N(CCCN)[C@@H](c2nc3cc(Cl)ccc3c(=O)n2Cc2ccccc2)C(C)C)cc1 [ispinesib]
How it was run: as §1

bafetinib = compound: Cc1ccc(NC(=O)c2ccc(CN3CC[C@H](N(C)C)C3)c(C(F)(F)F)c2)cc1Nc1nccc(-c2cncnc2)n1 [bafetinib]
How it was run: as §1

dasatinib = compound: Cc1nc(Nc2ncc(C(=O)Nc3c(C)cccc3Cl)s2)cc(N2CCN(CCO)CC2)n1 [dasatinib]
How it was run: as §1

[9] = compound: Cn1cc(-c2ccc3nnc(C(F)(F)c4ccc5ncccc5c4)n3n2)cn1
How it was run: as §1

duvelisib = compound: C[C@H](Nc1ncnc2nc[nH]c12)c1cc2cccc(Cl)c2c(=O)n1-c1ccccc1 [duvelisib]
How it was run: as §1

Measured: log2 fold change

CEP57 (UniProt Q86XR8)
inactive: [1] -0.009 | [2] 0.342 | gandotinib -0.112 | [3] -0.042 | nilotinib -0.051 | [4] -0.354 | [5] -0.365 | [6] -0.095 | mubritinib -0.067

CHD1 (UniProt O14646)
inactive: [7] 0.008 | gandotinib 0.039 | [3] -0.075

CHFR (UniProt Q96EP1)
inactive: crizotinib 0.056 | [7] 0.22 | tozasertib -0.004 | doramapimod -0.119 | tipifarnib -0.094 | mubritinib 0.059

CEBPZOS (UniProt A8MTT3)
inactive: gandotinib -0.189 | [8] -0.013 | doramapimod 0.066 | ispinesib 0.016 | bafetinib 0.066 | [3] 0.014 | nilotinib 0.039 | [4] 0.021 | dasatinib 0.009 | [5] -0.027 | [9] 0.033 | tipifarnib -0.044 | mubritinib 0.121
active: crizotinib 0.26

CFAP47 (UniProt Q6ZTR5)
inactive: [7] 0.099 | [8] -0.302 | bafetinib 0.034 | dasatinib -0.117 | tipifarnib 0.047

CDH13 isoform 4 (UniProt P55290)
inactive: duvelisib -0.038 | [8] 0.163 | dasatinib 0.115

CENPP (UniProt Q6IPU0)
inactive: crizotinib -0.147 | [7] -0.203 | [2] 0.028 | duvelisib 0.036 | gandotinib -0.13 | tozasertib -0.025 | [8] -0.054 | doramapimod 0.012 | ispinesib -0.027 | bafetinib -0.028 | [3] 0.075 | nilotinib -0.025 | [4] -0.02 | dasatinib -0.034 | [5] 0.025 | [6] 0.054 | [9] -0.121 | tipifarnib -0.11 | mubritinib -0.04

CDKN2AIPNL (UniProt Q96HQ2)
inactive: nilotinib 0.013 | [4] 0.036 | [5] -0.057

CDK5RAP2 (UniProt Q96SN8)
inactive: crizotinib 0.053 | [7] 0.024 | tozasertib 0.061 | doramapimod 0.099 | bafetinib 0.095

CEMIP2 (UniProt Q9UHN6)
inactive: crizotinib 0.075 | [7] 0.023 | [2] 0.03 | gandotinib -0.129 | [8] -0.136 | doramapimod -0.144 | ispinesib -0.148 | bafetinib -0.018 | [3] 0.002 | nilotinib 0.069 | [4] 0.083 | dasatinib -0.044 | [5] 0.031 | [6] 0.03 | [9] 0.179 | tipifarnib 0.033 | mubritinib -0.024

CDC6 (UniProt Q99741)
inactive: [7] -0.225 | duvelisib 0.014 | [8] 0.13 | dasatinib 0.166

CDT1 (UniProt Q9H211)
inactive: [7] -0.076

Taken from the entries so far (four entries):
CDKN2AIPNL (UniProt Q96HQ2)
inactive: nilotinib 0.013 | [4] 0.036 | [5] -0.057

CDK5RAP2 (UniProt Q96SN8)
inactive: crizotinib 0.053 | [7] 0.024 | tozasertib 0.061 | doramapimod 0.099 | bafetinib 0.095

CEMIP2 (UniProt Q9UHN6)
inactive: crizotinib 0.075 | [7] 0.023 | [2] 0.03 | gandotinib -0.129 | [8] -0.136 | doramapimod -0.144 | ispinesib -0.148 | bafetinib -0.018 | [3] 0.002 | nilotinib 0.069 | [4] 0.083 | dasatinib -0.044 | [5] 0.031 | [6] 0.03 | [9] 0.179 | tipifarnib 0.033 | mubritinib -0.024

CDC6 (UniProt Q99741)
inactive: [7] -0.225 | duvelisib 0.014 | [8] 0.13 | dasatinib 0.166

Remaining list, next part

CEP83 (UniProt Q9Y592)
inactive: crizotinib 0.014 | doramapimod -0.003 | ispinesib -0.073 | bafetinib -0.091 | [9] -0.002

CFAP58 (UniProt Q5T655)
inactive: gandotinib -0.011 | ispinesib -0.165 | [3] 0.009 | [9] -0.046 | tipifarnib -0.108 | mubritinib 0.127

CENPK (UniProt Q9BS16)
inactive: crizotinib -0.102 | [2] -0.202 | doramapimod 0.053 | bafetinib 0.247 | nilotinib 0.07 | [4] -0.207 | [5] -0.047 | [6] 0.014 | tipifarnib 0.087

CHD1L (UniProt Q86WJ1)
inactive: [1] -0.027 | gandotinib 0.205 | [3] -0.1

CEBPB (UniProt P17676)
inactive: crizotinib 0.009 | [7] -0.157 | [2] 0.069 | duvelisib -0.089 | gandotinib -0.204 | tozasertib 0.128 | [8] -0.07 | doramapimod 0.005 | ispinesib -0.314 | bafetinib -0.017 | [3] -0.093 | nilotinib 0.013 | [4] 0.047 | dasatinib 0.113 | [5] -0.013 | [6] -0.004 | [9] -0.023 | tipifarnib 0.032 | mubritinib -0.047
